PubChem BioAssay AID624297 (National Center for Advancing Translational Sciences (NCATS), 2012)
Among all 340,000 compounds or so, about 6,200 (1.8%) were called active. This list was built around the results that the source calls inconclusive (neither active nor inactive); the mix of calls is not that of the screen. The call rests on the fitted dose curve; in most records, active means well fitted activation curve with a large enough effect; inconclusive means small, poorly fitted or top-dose-only effect; inactive means no such curve, though single readings can be large or run the other way. Where the call is inconclusive, the potency comes from a doubtful curve fit.

Assay: A quantitative high throughput screen for small molecules that induce DNA re-replication in SW480 colon adenocarcinoma cells. Further: nearly all actives have a fitted effect of over 55% in size. On re-replication activation: % of control where 0% means no effect.
Settings: Hoechst DNA content imaging, 48 h; re-replication activation: at 46.1 µM (top of the series) unless noted
Procedure, shortened: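 Cells (250 per well) received 23 nL compound or DMSO by pin tool and were kept 48 hr at 37 C, 5% CO2. Nuclei were then stained with Hoechst for 40 min and scanned for DNA content.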
Potency means the concentration at half of the fitted maximal effect.

Q: For CCc1ccccc1-n1c(-c2ccncc2)n[nH]c1=S, which “re-replication activation” value is on record?
A: Its value is inactive: -2.79%.

Q: For Oc1ccccc1C=NCCN1CCN(CCN=Cc2ccccc2O)C1c1ccccc1O (centres undefined), which Potency is on record?
A: The Potency was inconclusive: 23.1 µM [activator, partial curve, poor fit].

Q: For COc1ccccc1N(CC(=O)Nc1cc(C)on1)S(=O)(=O)c1cccc(C(F)(F)F)c1, which “re-replication activation” value is on record?
A: Its value is inactive: 0.744%.

Q: Which Potency does the source give for Cc1ccc(C(=O)N2CCCC(C(F)(F)F)C2)cc1S(=O)(=O)N1CCOCC1 (centres undefined) here?
A: The Potency was inconclusive: 29.1 µM [activator, single point].

Q: Which Potency does the source give for Cc1c2cnn(CC(=O)NC3CCCC3)c(=O)c2c(C)n1Cc1ccccc1 here?
A: Its Potency is inconclusive: 0.146 µM [activator, full curve, poor fit].

Q: Which Potency does the source give for Nc1nonc1-c1nc2ccccc2n1Cc1ccc(F)cc1Cl here?
A: The Potency was inconclusive: 20.6 µM [activator, single point].

Q: For CCCNC(=O)c1cccc(COCC(F)(F)C(F)F)c1, which Potency is on record?
A: Its Potency is inconclusive: 23.1 µM [activator, single point].

Q: For Cc1cc(F)ccc1NC(=S)NCCc1ccccc1, which Potency is on record?
A: The Potency was inconclusive: 20.6 µM [activator, single point].

Q: For O=C(Nc1ccc(Oc2ccsc2C(=O)O)cc1)c1ccccc1F, which “re-replication activation” value is on record?
A: Its value is inactive: -21.9%.

Q: Which Potency does the source give for CN(C(=O)CSc1nnc(-c2ccc(F)cc2)n1C)C1CCS(=O)(=O)C1 (centres undefined) here?
A: The Potency was inconclusive: 29.1 µM [activator, single point].

Q: For CC1Cc2ccccc2N1C(=O)c1ccc(N2CCCC2)c([N+](=O)[O-])c1 (centres undefined), which Potency is on record?
A: The Potency was inconclusive: 9.2 µM [activator, partial curve].

Q: With CC1(C)CC(NC(=O)c2ccccn2)CC(C)(C)N1O as the compound, how does the “re-replication activation” value read?
A: Its value is inactive: -48.9%.

Q: With O=C(CNc1cccc(S(=O)(=O)N2CCOCC2)c1)Nc1ccc(C(F)(F)F)cc1 as the compound, how does the “re-replication activation” value read?
A: The value was inactive: -0.0768%.

Q: With COC(=O)c1cc(=O)n(-c2ccccc2)c(=Nc2ccccc2)s1 as the compound, how does the Potency read?
A: Its Potency is inconclusive: 29.1 µM [activator, partial curve, poor fit].

Q: For CCOC(=O)CC(=O)CSc1nc2c(c(C)c1C#N)CCC2, which Potency is on record?
A: Its Potency is inconclusive: 6.51 µM [activator, partial curve].

Q: With COC(=O)[C@@H]1Cc2c([nH]c3ccccc23)C(C)N1C(=O)c1ccccc1 (some centres undefined) as the compound, how does the Potency read?
A: Its Potency is inconclusive: 18.4 µM [activator, single point].

Q: With C/C(=N\NC(=O)c1cc(-c2cccc([N+](=O)[O-])c2)n[nH]1)c1ccccc1O as the compound, how does the Potency read?
A: Its Potency is inconclusive: 23.1 µM [activator, single point].

Q: For CCc1cccc(C)c1NC(=O)CCOc1ccccc1, which “re-replication activation” value is on record?
A: Its value is inactive: -3.15%.

Q: For CC(C)c1ccc(OC(=O)c2cccc(S(=O)(=O)N3CCN(C)CC3)c2)cc1, which “re-replication activation” value is on record?
A: Its value is inactive: -1.1%.

Q: With CC1Cc2cc(/C(O)=C3/C(=O)C(=O)N(Cc4ccncc4)C3c3ccc(N(C)C)cc3)ccc2O1 (centres undefined) as the compound, how does the “re-replication activation” value read?
A: The value was inactive: -0.953%.

Q: For CCCN(CCC)CCCNC(=O)c1cc2c(-c3ccc(OC)c(OC)c3)nn(C)c2s1, which Potency is on record?
A: The Potency was inconclusive: 29.1 µM [activator, single point].

Q: For CCc1noc(C)c1C(=O)NNC(=O)COc1ccc(C)c(C)c1, which “re-replication activation” value is on record?
A: Its value is inactive: -16.4%.

Q: For O=C(c1ccc(N2CCCC2=O)cc1)N1CCN(c2ccc(Cl)cc2)CC1, which Potency is on record?
A: The Potency was inconclusive: 7.31 µM [activator, partial curve, poor fit].

Q: Which Potency does the source give for Cc1ccc(-c2nn(-c3ccccc3)cc2/C=C2\SC(=S)N(CCCCCC(=O)O)C2=O)o1 here?
A: Its Potency is inconclusive: 29.1 µM [activator, single point].

Q: With Cc1ccccc1-c1ccc(/C=C2/SC(N3CCOCC3)=NC2=O)o1 as the compound, how does the Potency read?
A: Its Potency is inconclusive: 23.1 µM [activator, single point].

Q: With O=C(CSc1nncc2ccccc12)Nc1ccc(F)cc1 as the compound, how does the “re-replication activation” value read?
A: Its value is inactive: -7.24%.

Q: With CN1CCN(c2ccc(Cl)cc2NC(=O)C2COc3ccccc3O2)CC1 (centres undefined) as the compound, how does the Potency read?
A: Its Potency is inconclusive: 18.4 µM [activator, partial curve, poor fit].

Q: For O=C1NC2(CCCCC2)NN1c1ccccc1, which re-replication activation is on record?
A: Its re-replication activation is inactive: -0.732% [at 9.22 µM].

Q: Which “re-replication activation” value does the source give for CN(c1ccccc1)S(=O)(=O)c1cccc(NC(=O)C2CC(=O)N(Cc3ccccc3)C2)c1 (centres undefined) here?
A: The value was inactive: -16.3%.

Q: With CCOc1ccc(S(=O)(=O)N2CCCC(C(=O)NC3CC3)C2)cc1Cl (centres undefined) as the compound, how does the Potency read?
A: The Potency was inconclusive: 10.3 µM [activator, partial curve].

Q: For Cc1ncc(CO)c(/C=N/Nc2ccc(C(F)(F)F)cn2)c1O, which Potency is on record?
A: The Potency was inconclusive: 0.651 µM [activator, full curve, poor fit].

Q: Which Potency does the source give for COc1ccc2oc(C(=O)OCC(=O)NC(C)c3ccccc3)c(C)c2c1 (centres undefined) here?
A: The Potency was inconclusive: 18.4 µM [activator, single point].

Q: Which Potency does the source give for Cc1cc(C)c(S(=O)(=O)Nc2ccc3c4c(cccc24)CC3)c(C)c1 here?
A: Its Potency is inconclusive: 0.651 µM [activator, full curve, poor fit].

Q: With Cc1c(C)n(Cc2ccc(Cl)cc2)c2ccc(C(=O)NCCN3CCOCC3)cc12 as the compound, how does the Potency read?
A: Its Potency is inconclusive: 29.1 µM [activator, single point].

Q: For CC1CC(C)CN(S(=O)(=O)c2ccc(NC(=O)c3ccc(=O)[nH]c3)cc2)C1 (centres undefined), which Potency is on record?
A: Its Potency is inconclusive: 18.4 µM [activator, single point].

Q: With O=C(NNC(=S)NC(=O)c1ccccc1Cl)c1cccc([N+](=O)[O-])c1 as the compound, how does the “re-replication activation” value read?
A: The value was inactive: 9.82%.

Q: Which Potency does the source give for O=C(NCCO)c1cc2ccccc2cc1O here?
A: Its Potency is inconclusive: 20.6 µM [activator, partial curve, poor fit].

Q: With COCC1CCCN(Cc2cn(-c3ccccc3F)nc2-c2cc(C)sc2C)C1 (centres undefined) as the compound, how does the “re-replication activation” value read?
A: Its value is inactive: -0.48%.

Q: Which Potency does the source give for Cc1ccc(Oc2c(CO)c(-c3ccccc3)nn2C)cc1 here?
A: The Potency was inconclusive: 29.1 µM [activator, single point].

Q: Which Potency does the source give for CCc1ccc(/C=C2\SC(=S)N(CCC(=O)NCCCN3CCOCC3)C2=O)cc1 here?
A: Its Potency is inconclusive: 29.1 µM [activator, single point].

Q: For CC(=O)c1c(C)[nH]c(C(=O)Nc2cc(C)cc(C)c2)c1C, which “re-replication activation” value is on record?
A: Its value is inactive: -6.34%.

Q: For CCCN1CCC(=O)N([C@H](CO)CC(C)C)CC1, which Potency is on record?
A: Its Potency is inconclusive: 0.82 µM [activator, partial curve, poor fit].

Q: Which Potency does the source give for CC1=C[C@H](C)[C@H](c2c(F)cccc2Cl)CC1=O here?
A: Its Potency is inconclusive: 2.59 µM [activator, single point].

Q: With COc1cc(CNCc2ccncc2)ccc1OCC(N)=O as the compound, how does the Potency read?
A: The Potency was inconclusive: 0.0065 µM [activator, full curve, poor fit].
